Data as given in PubChem BioAssay AID1259424 (University of Nebraska Medical Center, 2018).
The deposit covers about 14,000 reagents; shown is a random part of them. 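Higher correlation or smaller distance means closer resemblance to KSR1 loss; control wells, including KSR1 knockdowns, recur on many plates.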 Not given: the time to read-out.

Aim: 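Seek colon cancer survival genes behaving like KSR1, using a six-gene signature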 (primary screen)
System: human HCT116 colon cancer cells
Knock-down reagent: siRNA pool against human genes, 50 nM
Detection: 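Six signature mRNAs by branched-DNA multiplex assay, scaled to two housekeeping genes and non-targeting median, log2; matched to mean KSR1 knockdown profile by Pearson correlation and euclidean distance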
Reading the numbers: mean correlation with KSR1 profile and KSR1 correlation: higher = expression change more like KSR1 knockdown; mean distance from KSR1 profile: higher = expression change less like KSR1 knockdown

gene	PubChem SID	mean correlation with KSR1 profile	mean distance from KSR1 profile	KSR1 correlation, replicate 1	KSR1 correlation, replicate 2	KSR1 correlation, replicate 3
ZBTB1 (GeneID 22890)	SID363999219	-0.4	2.8	-0.12	-0.629	-0.33
NSUN3 (GeneID 63899)	SID364002307	-0.386	2.18	-0.437	-0.49	-0.192
RAB6C (GeneID 84084)	SID364003800	0.666	0.833	0.705	0.577	0.582
ZNF416 (GeneID 55659)	SID364000608	-0.535	2.99	-0.54	-0.24	-0.556
RAD18 (GeneID 56852)	SID364001522	-0.653	2.08	-0.726	-0.641	-0.605
PIK3CD (GeneID 5293)	SID363995965	0.45	1.52	0.393	0.558	0.451
FOLR1 (GeneID 2348)	SID363992092	-0.652	3.56	-0.581	-0.831	-0.306
CDK14 (GeneID 5218)	SID363998281	-0.285	3.27	0.119	-0.407	-0.336
RPL12 (GeneID 6136)	SID363992259	-0.267	2.42	-0.435	-0.383	0.129
SPINK7 (GeneID 84651)	SID364004059	0.795	4.34	0.756	0.631	0.604
ENTPD6 (GeneID 955)	SID363992532	0.374	1.61	0.312	0.371	0.344
TSC22D4 (GeneID 81628)	SID364003509	0.589	1.62	0.479	0.449	0.537
ELOC (GeneID 6921)	SID363996541	-0.614	4.48	-0.694	-0.5	-0.548
BNIP2 (GeneID 663)	SID363995319	0.0449	1.95	0.115	0.00294	-0.062
PPP2R2A (GeneID 5520)	SID363993876	-0.425	2.54	-0.26	-0.605	-0.466
ABI3 (GeneID 51225)	SID364000100	-0.04	1.91	0.0512	0.246	-0.103
CDC42EP3 (GeneID 10602)	SID363997258	0.559	2.74	0.544	0.633	0.642
KCNK4 (GeneID 50801)	SID364000235	-0.323	2.31	0.055	-0.342	-0.496
PRXL2A (GeneID 84293)	SID364003919	0.228	2.38	-0.27	0.282	0.504
CHD9 (GeneID 80205)	SID364003265	-0.0664	2.41	-0.0686	-0.283	-0.111
OPN1MW (GeneID 2652)	SID363991836	0.302	3.37	0.485	0.493	0.153
STOML2 (GeneID 30968)	SID363998520	-0.433	3.5	-0.229	-0.473	-0.353
ITGA6 (GeneID 3655)	SID363991545	-0.745	2.34	-0.784	-0.735	-0.677
LARP4B (GeneID 23185)	SID364005127	0.647	1.07	0.565	0.664	0.646
GLT8D2 (GeneID 83468)	SID364003591	0.406	3.18	0.316	0.365	0.394
SNRNP25 (GeneID 79622)	SID364002877	0.127	1.95	0.223	0.198	0.0955
RIPOR2 (GeneID 9750)	SID363999684	-0.406	2.4	-0.351	-0.259	-0.347
MS4A5 (GeneID 64232)	SID364002669	0.366	1.63	0.392	0.219	0.247
CDH5 (GeneID 1003)	SID363993014	0.681	0.908	0.821	0.642	0.446
JAK2 (GeneID 3717)	SID363995913	-0.133	1.83	0.531	-0.176	-0.747

Already shown: an excerpt of the list.
gene	PubChem SID	mean correlation with KSR1 profile	mean distance from KSR1 profile	KSR1 correlation, replicate 1	KSR1 correlation, replicate 2	KSR1 correlation, replicate 3
OPN1MW (GeneID 2652)	SID363991836	0.302	3.37	0.485	0.493	0.153
STOML2 (GeneID 30968)	SID363998520	-0.433	3.5	-0.229	-0.473	-0.353
ITGA6 (GeneID 3655)	SID363991545	-0.745	2.34	-0.784	-0.735	-0.677
LARP4B (GeneID 23185)	SID364005127	0.647	1.07	0.565	0.664	0.646

Further records follow.
gene	PubChem SID	mean correlation with KSR1 profile	mean distance from KSR1 profile	KSR1 correlation, replicate 1	KSR1 correlation, replicate 2	KSR1 correlation, replicate 3
CYP7B1 (GeneID 9420)	SID363995773	0.664	1.09	0.128	0.484	0.861
SHLD2 (GeneID 54537)	SID364001361	0.738	1.91	0.752	0.498	0.285
TPM3 (GeneID 7170)	SID364004699	0.343	2.91	0.474	0.407	0.209
NUFIP2 (GeneID 57532)	SID364001818	0.376	1.78	0.406	0.539	0.369
MYNN (GeneID 55892)	SID364001156	-0.564	1.28	-0.732	-0.229	0.231
SLC6A16 (GeneID 28968)	SID363998564	-0.967	3.95	-0.76	-0.8	-0.83
PIBF1 (GeneID 10464)	SID363997165	0.345	1.79	0.459	0.356	0.34
TNFRSF11B (GeneID 4982)	SID363993717	-0.0141	3.31	0.0308	-0.129	0.139
IL3RA (GeneID 3563)	SID363993384	0.362	1.45	0.347	0.311	0.369
CA7 (GeneID 766)	SID363996108	0.116	3.27	-0.214	0.273	0.32
RNF39 (GeneID 80352)	SID364003336	0.588	1.67	0.503	0.464	0.634
POLE (GeneID 5426)	SID363997055	0.73	1.35	0.71	0.781	0.549
MED28 (GeneID 80306)	SID364003311	0.129	2.71	-0.0299	0.124	-0.000845
EGFL8 (GeneID 80864)	SID364003395	0.219	2.6	-0.126	0.196	0.268
ECSIT (GeneID 51295)	SID364000211	-0.0501	2.01	0.199	-0.14	-0.0802
MTRF1L (GeneID 54516)	SID364001351	0.256	2.56	-0.0148	0.306	0.545
CTNNA3 (GeneID 29119)	SID363998390	-0.623	3.04	-0.511	-0.671	-0.676
KIF1A (GeneID 547)	SID363995311	0.0822	1.84	-0.0246	0.0336	0.226
SEPSECS (GeneID 51091)	SID364000289	-0.44	2.11	-0.429	-0.413	-0.255
SNRNP200 (GeneID 23020)	SID363998549	-0.25	2.64	-0.314	-0.0964	-0.425
